Molecules are shown by their SMILES.

The IC50 is the concentration that inhibits the measured activity by half. Read a high IC50 as lower potency.

A short description of this assay: Inhibition of protein farnesyltransferase by continuous fluorescence assay.

As to `Clc1ccc(COC(Cn2ccnc2)c2ccc(Cl)cc2Cl)cc1` (configuration not stated) [ECONAZOLE], half-maximal inhibition (IC50) was put at 23.3 µM. This lies in the double-digit micromolar range.

On to `Clc1ccc(COC(Cn2ccnc2)c2ccc(Cl)cc2Cl)c(Cl)c1` (configuration not stated) [MICONAZOLE], for which the IC50 is 18.9 µM.

(Values after ChEMBL document CHEMBL1157633, “Prediction and evaluation of protein farnesyltransferase inhibition by commercial drugs” (J Med Chem, 2010).)
